According to patent US11649431B2, “Cortical interneurons and other neuronal cells produced by the directed differentiation of pluripotent and multipotent cells” (MEMORIAL SLOAN-KETTERING CANCER CENTER, priority 2013, dated 2023):
Entries after “also recorded” stand apart in the source; their conditions may differ. At least one compound was matched to its structure with a doubt left.

Test system: GABAA receptor
Assay type: cell-based, human

## CN1CCc2cc3c(cc2[C@H]1[C@@H]1OC(=O)c2c1ccc1c2OCO1)OCO3 [bicuculline, (−)-Bicuculline methochloride]
  firing rate of NKX2.1::GFP+ cells, day 10-18 group: modulation of the firing rate
  spontaneous firing activity / firing rate, day 6-18 cultures: little effect; also recorded: remained unchanged
  spontaneous inhibitory postsynaptic currents (sIPSCs) in NKX2.1::GFP+ neurons: reversibly blocked
